Values quoted from earlier work, collected in US8952169B2 (Genentech, Inc., priority 2012, dated 2015).

Settings: administered topically (a Lidoderm patch); cited from earlier work

CCN(CC)CC(=O)Nc1c(C)cccc1C [lidocaine]
plasma concentrations: about 1 μM
